Source: ChEMBL document CHEMBL1146283, “Development of potent, orally active 1-substituted-3,4-dihydro-2-quinolone glycogen phosphorylase inhibitors” (Bioorg Med Chem Lett, 2007)

How the values were obtained:
in vitro [1] = details: human, Caco-2
in vitro [2] = details: human, Caco-2; remark: listed apart in the source

SMILES | Papp A→B (in vitro [1]) [nm/s] | Papp B→A (in vitro [2]) [nm/s]
NC(=O)CN1C(=O)C(NC(=O)c2cc3cc(Cl)sc3[nH]2)Cc2ccccc21 (centres undefined) | 120 | 70
O=C(NC1Cc2ccccc2N(CC(CO)CO)C1=O)c1cc2cc(Cl)sc2[nH]1 (racemic) | 170 | 100
